From the supplement of paper PMC12024529
Where a name gives a salt, the structure may show the parent alone. The list shows a part of the results. Plates or batches differ in their baseline, so values are only roughly comparable.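 Wild-type or misfolding-prone missense mutant B-domain-deleted factor VIII, fused to Gaussia luciferase, is stably expressed in HEK293 lines. Each score is (mean triplicate-well luminescence minus DMSO mean) divided by DMSO standard deviation. Hits score at least 2; lower scores could stem from decreased secretion or poorer cell viability.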

Assays:
[1] = system: HEK293 WT BDD-FVIII-Gluc; assay: secreted FVIII-Gluc luciferase Z-score vs DMSO control; higher = more FVIII-Gluc secretion; settings: 5 µM; 24 h
[2] = system: HEK293 p.N1941S BDD-FVIII-Gluc; assay: as above; settings: 5 µM; 24 h

SMILES | secreted FVIII-Gluc luciferase Z-score [1] | secreted FVIII-Gluc luciferase Z-score [2]
CC(=O)OCC(=O)[C@@]1(O)[C@H](C)C[C@H]2[C@@H]3CCC4=CC(=O)C=C[C@]4(C)[C@@]3(F)[C@@H](O)C[C@@]21C [Dexamethasone acetate] | active: 16.1 | active: 3.86
CN1CCN(C2=Nc3cc(Cl)ccc3Nc3ccccc32)CC1 [Clozapine (Clozaril)] | inactive: -0.688 | inactive: -1.85
COC(=O)[C@H](Cc1ccccc1)NC(=O)[C@@H](N)CC(=O)O [Aspartame] | inactive: -0.104 | inactive: -1.16
CNC[C@@H](O)c1ccc(O)c(O)c1 [L-Adrenaline (Epinephrine)] | inactive: 0.135 | inactive: -1.45
N#C[C@@H]1C[C@@H]2C[C@@H]2N1C(=O)[C@@H](N)C12CC3CC(CC(O)(C3)C1)C2 | inactive: -2.98 | inactive: 0.101
O=C(O)CCCN1CCC(O[C@@H](c2ccc(Cl)cc2)c2ccccn2)CC1 [Bepotastine Besilate] | inactive: -0.634 | inactive: -0.246
Nc1ccn([C@@H]2O[C@H](CO)[C@@H](O)C2(F)F)c(=O)n1 [Gemcitabine (Gemzar)] | inactive: -8.96 | inactive: -5.17
CC(C)(C)C(=O)C(Oc1ccc(Cl)cc1)n1ccnc1 (configuration not stated) [Climbazole] | inactive: -0.773 | inactive: 0.459
COc1cc2nc(N(C)CCCNC(=O)C3CCCO3)nc(N)c2cc1OC (configuration not stated) [Alfuzosin hydrochloride (Uroxatral)] | inactive: -1.02 | inactive: -1.18
Nc1ccc(C(=O)NCC(=O)O)cc1 [Sodium 4-aminohippurate Hydrate] | active: 4.62 | active: 3.45
C=C1CC[C@H](O)C/C1=C/C=C1\CCC[C@]2(C)[C@@H]([C@H](C)/C=C/[C@H](C)C(C)C)CC[C@@H]12 [Vitamin D2] | inactive: 0.042 | inactive: -1.96
CCCC(=O)O[C@]1(C(=O)COC(C)=O)CC[C@H]2[C@@H]3C[C@H](F)C4=CC(=O)C=C[C@]4(C)[C@@]3(F)[C@@H](O)C[C@@]21C [Difluprednate] | active: 11.1 | active: 4.75
Nc1nc(F)nc2c1ncn2[C@@H]1O[C@H](COP(=O)(O)O)[C@@H](O)[C@@H]1O [Fludarabine Phosphate (Fludara)] | inactive: 0.648 | inactive: 0.498
CC(=O)O[C@]1(C(C)=O)CC[C@H]2[C@@H]3C[C@H](C)C4=CC(=O)CC[C@]4(C)[C@H]3CC[C@@]21C [Medroxyprogesterone acetate] | active: 4.35 | inactive: 0.32
CN1CC2c3ccccc3Oc3ccc(Cl)cc3C2C1 (configuration not stated) [Asenapine] | inactive: -1.09 | inactive: -7.36
CCCCCCCCCCC[C@@H](C[C@@H]1OC(=O)[C@H]1CCCCCC)OC(=O)[C@H](CC(C)C)NC=O [Orlistat (Alli, Xenical)] | inactive: -2.93 | inactive: -0.05
COc1ccc(CNc2nc(N3CCC[C@H]3CO)ncc2C(=O)NCc2ncccn2)cc1Cl [Avanafil] | inactive: -0.814 | inactive: -0.188
O=NO [Sodium nitrite] | inactive: -1.24 | inactive: -0.571
Cc1ccccc1C(=O)Nc1ccc(C(=O)N2CCCC(O)c3cc(Cl)ccc32)c(C)c1 (configuration not stated) | inactive: -2.49 | inactive: -1.05

SMILES | secreted FVIII-Gluc luciferase Z-score [1] | secreted FVIII-Gluc luciferase Z-score [2]
CCCC(CCC)C(=O)O [Divalproex sodium] | inactive: -1.4 | inactive: 1.45
O=C(O)c1ccccc1 [Benzoic acid] | inactive: -0.242 | inactive: 0.666
CCN1CCC[C@H]1CNC(=O)c1cc(S(N)(=O)=O)ccc1OC [Levosulpiride (Levogastrol)] | inactive: -1.52 | inactive: -0.823
CCCCC1C(=O)N(c2ccccc2)N(c2ccccc2)C1=O [Phenylbutazone (Butazolidin, Butatron)] | inactive: -4.04 | inactive: -1.04
COc1ccc(O)cc1 [Mequinol] | inactive: 0.246 | inactive: -0.827
CCC(=O)OCC(=O)[C@@]1(OC(=O)CC)[C@@H](C)C[C@H]2[C@@H]3CCC4=CC(=O)C=C[C@]4(C)[C@@]3(Cl)[C@@H](O)C[C@@]21C [Beclomethasone dipropionate] | active: 13 | active: 3.44
CN1CCC(=C2c3ccccc3CC(=O)c3sccc32)CC1 [Ketotifen fumarate (Zaditor)] | inactive: -1.77 | inactive: -3.76
CN(C/C=C/C#CC(C)(C)C)Cc1cccc2ccccc12 [Terbinafine (Lamisil, Terbinex)] | inactive: -1.37 | inactive: 0.187
O=S(=O)(O)CCS [Mesna (Uromitexan, Mesnex)] | inactive: 1.39 | inactive: -2.73
Cc1ccc(NC(=O)c2ccc(CN3CCN(C)CC3)cc2)cc1Nc1nccc(-c2cccnc2)n1 [Imatinib (Gleevec)] | inactive: -3.22 | inactive: -1.99
Nc1c(CC(=O)O)cccc1C(=O)c1ccccc1 [Amfenac Sodium (monohydrate)] | inactive: 1.11 | inactive: -1.79
CC1CCc2cc(F)cc3c(=O)c(C(=O)O)cn1c23 (configuration not stated) [Flumequine] | inactive: -0.707 | inactive: -0.839
CCCCC[C@H](O)/C=C/[C@H]1[C@H](O)CC(=O)[C@@H]1CCCCCCC(=O)O [Alprostadil (Caverject)] | inactive: -1.94 | inactive: -2.24
CNC(=C[N+](=O)[O-])NCCSCc1ccc(CN(C)C)o1 [Ranitidine (Zantac)] | inactive: -2.94 | inactive: 0.313
COc1cc2nc(N3CCN(C(=O)C4CCCO4)CC3)nc(N)c2cc1OC (configuration not stated) [Terazosin HCl (Hytrin)] | inactive: 0.195 | inactive: -1.85
CCN(CC)CCOC(=O)c1ccc(N)cc1 [Procaine (Novocaine) HCl] | inactive: 0.0349 | inactive: 0.217
Nc1c2ccccc2nc2ccccc12 [9-Aminoacridine] | inactive: 1.53 | active: 3.36
CC(C)(C)c1nc(-c2cccc(NS(=O)(=O)c3c(F)cccc3F)c2F)c(-c2ccnc(N)n2)s1 | inactive: -4.76 | inactive: -0.0971
CC(C)CC(N)=O [Isovaleramide] | inactive: -0.987 | inactive: 1.08

Sorted by number of heavy atoms (ascending): 3 of the compounds above
SMILES | secreted FVIII-Gluc luciferase Z-score [1] | secreted FVIII-Gluc luciferase Z-score [2]
O=NO [Sodium nitrite] | inactive: -1.24 | inactive: -0.571
O=C(O)c1ccccc1 [Benzoic acid] | inactive: -0.242 | inactive: 0.666
Nc1c(CC(=O)O)cccc1C(=O)c1ccccc1 [Amfenac Sodium (monohydrate)] | inactive: 1.11 | inactive: -1.79

Further entries follow:

SMILES | secreted FVIII-Gluc luciferase Z-score [1] | secreted FVIII-Gluc luciferase Z-score [2]
CS(=O)(=O)c1ccc(C2=C(c3ccccc3)C(=O)OC2)cc1 [Rofecoxib (Vioxx)] | inactive: -0.768 | inactive: -1.52
C[C@]12C=CC(=O)C=C1CC[C@@H]1[C@@H]2C(=O)C[C@@]2(C)[C@H]1CC[C@]2(O)C(=O)CO [Prednisone (Adasone)] | inactive: -1.3 | inactive: 0.61
CCN(CC)CC#CCOC(=O)C(O)(c1ccccc1)C1CCCCC1 (configuration not stated) [Oxybutynin chloride] | inactive: 0.469 | inactive: -0.24
CNC(=O)c1cc(Oc2ccc(NC(=O)Nc3ccc(Cl)c(C(F)(F)F)c3)cc2)ccn1 [Sorafenib (Nexavar)] | inactive: -2.84 | inactive: -9.15
C#CCN[C@@H]1CCc2ccccc21 [Rasagiline mesylate] | inactive: 0.136 | inactive: 0.0952
C[C@@H](c1ncncc1F)[C@](O)(Cn1cncn1)c1ccc(F)cc1F [Voriconazole] | inactive: -1.95 | inactive: -0.18
[O-]n1ccccc1=S.[O-]n1ccccc1=S.[Zn+2] [Pyrithione zinc] | inactive: -11.3 | inactive: -5.79
Nc1ccn([C@@H]2CS[C@H](CO)O2)c(=O)n1 [Lamivudine (Epivir)] | inactive: -4.9 | inactive: 1.59
Cc1cc(C#N)cc(C)c1Oc1nc(Nc2ccc(C#N)cc2)nc(N)c1Br [Etravirine (TMC125)] | inactive: -1.68 | inactive: -1.38
CC(=O)O[C@]1(C(C)=O)CC[C@H]2[C@@H]3CCC4=CC(=O)CCC4=C3[C@@H](c3ccc(N(C)C)cc3)C[C@@]21C [Ulipristal] | inactive: -1.59 | inactive: -0.878
CN1CCN(c2c(F)cc3c(=O)c(C(=O)O)cn4c3c2OCN4C)CC1 [Marbofloxacin] | inactive: -3 | inactive: 0.967
C[C@@H]1C(=O)O[C@H]2C[C@@]34[C@H]5C[C@@H](C(C)(C)C)[C@]36[C@@H](OC(=O)[C@@H]6O)O[C@@]4(C(=O)O5)[C@]21O [Ginkgolide A] | inactive: 0.58 | inactive: -1.41
COC(=O)C1=C(C)NC(C)=C(C(=O)OC)C1c1ccccc1[N+](=O)[O-] [Nifedipine (Adalat)] | inactive: -0.615 | inactive: 0.731
O=C(CCNNC(=O)c1ccncc1)NCc1ccccc1 [Nialamide] | inactive: -1.05 | inactive: 1.24
CN1C(C(=O)Nc2ccccn2)=C(O)c2sc(Cl)cc2S1(=O)=O [Lornoxicam (Xefo)] | inactive: -1.84 | inactive: -2.47
COC(=O)C1=C(C)NC(C)=C(C(=O)OCCN2CCN(C(c3ccccc3)c3ccccc3)CC2)C1c1cccc([N+](=O)[O-])c1 (configuration not stated) [Manidipine (Manyper)] | inactive: 0.0604 | inactive: -7.07
NC(=O)OCC(COC(N)=O)c1ccccc1 [Felbamate] | inactive: -3.8 | inactive: -2.09
Clc1ccc(CCC(Cn2ccnc2)Sc2c(Cl)cccc2Cl)cc1 (configuration not stated) [Butoconazole nitrate] | inactive: -0.645 | inactive: -1.52
